The text below walks through data of CN114652851A.

This assay concerns the target Cynomolgus TROP2蛋白 (cynomolgus monkey). Description: ELISA, TROP2 protein incubated with antibody dilutions, goat anti-human IgG (H+L) secondary antibody.

Results are given in words; binding and its absence hold for the method and conditions named. Some results given as binding are weak or reduced against the parent protein; the word gives no strength.

B1: SY02人源化抗体 (人源化抗TROP2抗体SY02) (antibody, human IgG1, kappa, V domains shown)
VH: QVQLVQSGAEVKKPGSSVKVSCKASGYTFTDYSINWVRQAPGQGLEWMGVISTYYGDASYNQKFKGRVTITADESTSTAYMELSSLRSEDTAVYYCARYGDGYNQFDYWGQGTLVTVSS
VL: DIQMTQSPSSLSASVGDRVTITCRVSESVDSYGNNFMHWYQQKPGKAPKLLIYRASNLESGVPSRFSGSGSGTDFTFTISSLQPEDIATYYCQQSYEDPYTFGGGTKLEIKR
Regarding B1, the binding entry is on record as “binds”.
